Results reported in patent US6872841B2 (The University of North Carolina at Chapel Hill, priority 2002, dated 2005).
For part of these data: For at least one compound, name, drawing or mass did not settle the structure. Some results were stated once for a whole list of compounds, not compound by compound.

Experiments:
KB cells = assay: Clonogenic assay; type: cell-based, human; conditions: 5 μM for 30 minutes, colonies after 12 days, duplicate counts (control 110, 98)
Protocol: Biological Assay and Results. […] Freshly trypsinized KB cells were exposed to drug at 5, 0.5, or 0.05 μM for 30 minutes, respectively. Then, 250 or 500 cells were immediately plated and left undisturbed for 12 days. Colonies were fixed with formalin and stained with toluidine blue.

[1] = test system: selected human tumor cell lines; assay: Cell growth inhibition, overall statement on tumor cell lines; type: cell-based

Molecule	Colony Number (KB cells)	Inhibition of tumor cell replication compared with etoposide and GL-331 [1]
COc1cc([C@@H]2c3cc4c(cc3[C@@H](Nc3ccc([N+](=O)[O-])cc3)[C@H]3COC(=O)[C@H]23)OCO4)cc(OC)c1O [GL-331, reference compound]	64, 48	
COC(=O)[C@H](Cc1ccc(O)cc1)NC(=O)c1ccc(NC2c3cc4c(cc3C(c3cc(OC)c(O)c(OC)c3)C3C(=O)OCC23)OCO4)cc1 (stereo partly drawn) [Compound 12, 4′-O-demethyl-4β-[4″-(methyl L-tyrosine-N-carbonyl)-anilino]-4-desoxy-podophyllotoxin]	0, 1	
4′-O-demethyl-4β-[4″-(methyl L-tryptophan-N-carbonyl)-anilino]-4-desoxypodophyllotoxin [Compound 13]		superior or comparable to etoposide and GL-331
